Data as given in PubChem BioAssay AID2417 (National Center for Advancing Translational Sciences (NCATS), 2010).
About 4,300 (3.1%) of roughly 140,000 compounds were called active. Inconclusive means that the source gave no clear call. Such entries were picked first, then a sample of the others.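 The calls were made as follows: active = readout at or below -70, meaning at least 70% loss of cells showing the perinucleolar compartment, a nuclear body marking cancer cells; inconclusive = readout between -30 and a set limit; inactive = the rest.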

Experiment: High Content Assay for Compounds that inhibit the Assembly of the Perinucleolar Compartment;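 also: plate controls were DMSO wells for no effect and camptothecin positive control wells for full effect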
Details: PC3M PTB-GFP, PNC prevalence imaging, 16 h; at 10 µM; stronger effect = lower value
In short: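 PC3M cells stably expressing PTB-GFP, 750–1000 cells/well, treated 16 h at 37 °C with compound (23 nl of library stock), in duplicate. After paraformaldehyde fixation and Hoechst stain, imaged at 20x; PNC prevalence scored by image analysis.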

Row | SMILES | activity change (PNC), negative = inhibition
1 | COc1ccc(NC(=O)NCCCN2CCc3ccccc3C2)cc1 | inconclusive: -39.1%
2 | Oc1ccc(N=Cc2cc(Br)c(N3CCOCC3)o2)cc1 | inactive: 27.5%
3 | COc1ccc(C(=O)NCC(=O)n2nc(C)cc2C)cc1OC | inconclusive: -32.5%
4 | Cc1ccc(-n2ncc3c(=O)[nH]c(SC(C)C)nc32)cc1 | inconclusive: -67.4%
5 | CCCCOC(=O)C1=C(C)NC2(O)c3ccccc3C(=O)C12O (stereo unspecified) | inactive: 8.25%
6 | CCOc1ccccc1NC1=C(Cl)C(=O)N(c2ccccc2)C1=O | inconclusive: -56.4%
7 | C=Cc1cccc(NC(=O)COc2ccccc2)c1 | inconclusive: -34.3%
8 | Cc1cccc(NC(=O)Cn2c(=O)n(Cc3ccccc3)c(=O)c3c(C)c(C)sc32)c1 | inconclusive: -71.1%
9 | Cc1ccc(S(=O)(=O)N(CC(=O)Nc2cccc(N(C)S(C)(=O)=O)c2)c2ccc(Cl)c(Cl)c2)cc1 | inconclusive: -63.6%
10 | Cc1cc(C(C)(C)C)oc1C(=O)N(CC(=O)NC1CCCC1)Cc1ccc(F)cc1 | inconclusive: -36%
11 | Cc1ccc(-c2ccc(SCC(=O)N3CCCc4ccccc43)nn2)cc1 | inactive: 38.2%
12 | Fc1ccc(NCc2nnc(SCc3nnc(-c4ccccc4)o3)n2Cc2ccccc2)cc1 | inactive: -13.8%
13 | CCOC(=O)Cc1csc(NC(=O)c2cccc(N3C(=O)CCC3=O)c2)n1 | inactive: -27.1%
14 | COc1ccccc1C(=O)N(Cc1nc(-c2ccc(Cl)cc2)no1)C(C)C | inactive: 41.1%
15 | Cc1ccc(NC(=O)c2c(Cl)n(C)c3ccccc23)cc1 | inconclusive: -71.9%
16 | CC(CCc1ccco1)NC(=O)Cn1ncc2c1-c1ccccc1OC2 (stereo unspecified) | inactive: -10.7%
17 | COc1cccc(C(=O)CSc2nnnn2C2CCCCC2)c1 | inconclusive: -40.7%
18 | OCCN(Cc1ccccc1)Cc1cccc(F)c1 | inactive: 3.95%
19 | Cc1ccc(Cn2c(CN3CCOCC3)nc3c2c(=O)n(C)c(=O)n3C)cc1 | active: -100%
20 | O=C(NCSc1ccnc(SCNC(=O)c2ccc(F)cc2)n1)c1ccc(F)cc1 | active: -97.1%
21 | CN(C)C(CNc1nnnn1-c1ccccc1)c1ccco1 (stereo unspecified) | active: -90%
22 | O=S(=O)(NC1c2cccc3cccc(c23)C1Sc1ncccn1)c1ccc(Cl)cc1 (stereo unspecified) | inactive: 26.7%
23 | O=C(/C=C/c1ccco1)NC(=S)Nc1cccc([N+](=O)[O-])c1 | inconclusive: -58%

Row | SMILES | activity change (PNC), negative = inhibition
24 | CCCCOc1c(Br)cc(/C=C2\N=C(C)OC2=O)cc1OCC | inconclusive: -33.6%
25 | O=CNC(=O)c1ccccc1C(=O)O | inconclusive: -49%
26 | O=C1OCCC1Sc1nnc(-c2ccc(Br)cc2)o1 (stereo unspecified) | inactive: 36.9%
27 | CCOc1ccc(NC(=O)CSc2nnc(Cn3cnc([N+](=O)[O-])n3)n2C)cc1 | inconclusive: -71.4%
28 | c1ccc(CCNc2nc3ccccc3s2)cc1 | inconclusive: -72.7%
29 | Cc1ccc(S(=O)(=O)N2CCCCC2)cc1NS(=O)(=O)c1cccc(C(=O)O)c1 | inconclusive: -42.7%
30 | COc1cc(-c2cc(C(=O)Nc3nc4ccccc4s3)c3ccccc3n2)cc(OC)c1OC | inconclusive: -48.6%
31 | Nc1nc(C(=O)N2CCOCC2)nn1S(=O)(=O)c1ccc(Cl)cc1 | inconclusive: -40.5%
32 | COc1ccc(-n2c(C)cc(C(=O)CN3C(=O)NC4(CCCc5sccc54)C3=O)c2C)cc1 (stereo unspecified) | inactive: 32.5%
33 | Cc1nn(C)cc1CNC(=O)c1ccc(Br)o1 | inconclusive: -30.3%
34 | CN(C)S(=O)(=O)c1cc(NC(=O)COC(=O)Cc2ccc(Cl)cc2Cl)ccc1Cl | inactive: -14.3%
35 | O=C(NC(=S)Nc1ccc(NC(=O)c2ccco2)cc1)c1ccccc1 | active: -88%
36 | CC(C)C(=O)Nc1ccccc1N1CCN(S(C)(=O)=O)CC1 | inactive: 20.5%
37 | Cc1c(NC(=S)Nc2ccccc2C(F)(F)F)cccc1[N+](=O)[O-] | inconclusive: -38.4%
38 | COc1ccc(NC(=O)C(=O)NNC(=O)c2cccs2)c(OC)c1 | inactive: 6.21%
39 | Cn1cnnc1SCC(=O)Nc1sc2c(c1C(N)=O)CCC2 | inactive: 7.13%
40 | Cc1ccc(SCCNS(=O)(=O)c2ccc3c(c2)OCCO3)cc1 | inactive: 120%
41 | CCN(CC1COc2ccccc2O1)C(=S)Nc1ccccc1 (stereo unspecified) | inconclusive: -30.5%
42 | COCCn1c(-c2ccco2)nc2nc3ccccc3nc21 | inconclusive: -44.8%
43 | COc1cccc(/C=N/NC(=O)c2c(-c3ccccc3)noc2C)c1O | inactive: 45.6%
44 | CC1CCN(C(=O)CSc2nnc(Cc3cccn3C)n2CCc2ccccc2)CC1 | active: -95%
45 | COn1c(=O)c(=O)n(OC)c2ccccc21 | inconclusive: -49%
46 | CCOC(=O)Cc1csc(NC(=O)c2sc3nc4c(C)cc(C)cc4cc3c2N)n1 | inconclusive: -40.1%

Shown comma-delimited: entries from further up.
Row,SMILES,"activity change (PNC), negative = inhibition"
29,Cc1ccc(S(=O)(=O)N2CCCCC2)cc1NS(=O)(=O)c1cccc(C(=O)O)c1,inconclusive: -42.7%
30,COc1cc(-c2cc(C(=O)Nc3nc4ccccc4s3)c3ccccc3n2)cc(OC)c1OC,inconclusive: -48.6%
31,Nc1nc(C(=O)N2CCOCC2)nn1S(=O)(=O)c1ccc(Cl)cc1,inconclusive: -40.5%
32,COc1ccc(-n2c(C)cc(C(=O)CN3C(=O)NC4(CCCc5sccc54)C3=O)c2C)cc1 (stereo unspecified),inactive: 32.5%
33,Cc1nn(C)cc1CNC(=O)c1ccc(Br)o1,inconclusive: -30.3%
34,CN(C)S(=O)(=O)c1cc(NC(=O)COC(=O)Cc2ccc(Cl)cc2Cl)ccc1Cl,inactive: -14.3%
35,O=C(NC(=S)Nc1ccc(NC(=O)c2ccco2)cc1)c1ccccc1,active: -88%
36,CC(C)C(=O)Nc1ccccc1N1CCN(S(C)(=O)=O)CC1,inactive: 20.5%
37,Cc1c(NC(=S)Nc2ccccc2C(F)(F)F)cccc1[N+](=O)[O-],inconclusive: -38.4%
38,COc1ccc(NC(=O)C(=O)NNC(=O)c2cccs2)c(OC)c1,inactive: 6.21%
